Results from article doi:10.1101/2024.01.26.577166.
Results are given in words; binding and its absence hold for the method and conditions named. For some of these results: Binding can be weak; no strength is given. For some of these results: Where a sequence is shown, tags or fusion partners need not be part of it. For some of these results: Binding seen in cells or lysates may run through a third protein.

By UniProt entry, the sequences of proteins in these tests, tags left out. Where a name states a change or a piece, a line headed by the entry shows the natural chain unless it says otherwise.
UniProt Q9FT73: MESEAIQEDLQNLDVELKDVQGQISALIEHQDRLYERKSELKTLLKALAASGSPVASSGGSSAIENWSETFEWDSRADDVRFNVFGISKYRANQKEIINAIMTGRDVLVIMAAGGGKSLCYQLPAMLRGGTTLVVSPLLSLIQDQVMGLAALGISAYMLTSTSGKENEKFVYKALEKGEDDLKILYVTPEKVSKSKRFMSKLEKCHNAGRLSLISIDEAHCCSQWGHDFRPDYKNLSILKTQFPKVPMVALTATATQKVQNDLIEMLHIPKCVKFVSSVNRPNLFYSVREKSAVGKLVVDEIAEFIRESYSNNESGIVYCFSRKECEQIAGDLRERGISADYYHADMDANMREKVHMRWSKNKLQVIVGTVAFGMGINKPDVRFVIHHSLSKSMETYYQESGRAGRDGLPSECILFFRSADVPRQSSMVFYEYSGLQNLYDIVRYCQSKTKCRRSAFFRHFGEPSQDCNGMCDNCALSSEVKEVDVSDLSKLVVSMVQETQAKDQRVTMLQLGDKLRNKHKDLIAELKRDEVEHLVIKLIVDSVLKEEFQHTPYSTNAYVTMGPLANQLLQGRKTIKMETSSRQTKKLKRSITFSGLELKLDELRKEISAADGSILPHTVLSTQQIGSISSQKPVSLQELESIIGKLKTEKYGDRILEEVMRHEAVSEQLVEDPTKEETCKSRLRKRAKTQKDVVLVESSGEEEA
UniProt Q9FMP0: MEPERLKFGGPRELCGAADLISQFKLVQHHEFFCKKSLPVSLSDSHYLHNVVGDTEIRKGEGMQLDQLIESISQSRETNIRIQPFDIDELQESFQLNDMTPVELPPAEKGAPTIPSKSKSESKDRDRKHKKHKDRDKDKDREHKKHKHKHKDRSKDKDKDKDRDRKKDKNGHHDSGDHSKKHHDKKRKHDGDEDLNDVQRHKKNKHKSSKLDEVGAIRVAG
UniProt Q94AH9: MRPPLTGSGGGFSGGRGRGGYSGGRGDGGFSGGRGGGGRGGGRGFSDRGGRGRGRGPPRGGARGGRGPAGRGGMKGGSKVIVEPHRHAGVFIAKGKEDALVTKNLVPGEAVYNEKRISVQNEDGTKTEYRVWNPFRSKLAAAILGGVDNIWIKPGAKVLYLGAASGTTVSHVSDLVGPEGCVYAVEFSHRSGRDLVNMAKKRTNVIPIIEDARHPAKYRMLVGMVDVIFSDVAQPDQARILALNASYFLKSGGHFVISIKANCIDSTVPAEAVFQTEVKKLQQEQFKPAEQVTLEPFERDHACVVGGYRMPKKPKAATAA
UniProt Q4V3C1: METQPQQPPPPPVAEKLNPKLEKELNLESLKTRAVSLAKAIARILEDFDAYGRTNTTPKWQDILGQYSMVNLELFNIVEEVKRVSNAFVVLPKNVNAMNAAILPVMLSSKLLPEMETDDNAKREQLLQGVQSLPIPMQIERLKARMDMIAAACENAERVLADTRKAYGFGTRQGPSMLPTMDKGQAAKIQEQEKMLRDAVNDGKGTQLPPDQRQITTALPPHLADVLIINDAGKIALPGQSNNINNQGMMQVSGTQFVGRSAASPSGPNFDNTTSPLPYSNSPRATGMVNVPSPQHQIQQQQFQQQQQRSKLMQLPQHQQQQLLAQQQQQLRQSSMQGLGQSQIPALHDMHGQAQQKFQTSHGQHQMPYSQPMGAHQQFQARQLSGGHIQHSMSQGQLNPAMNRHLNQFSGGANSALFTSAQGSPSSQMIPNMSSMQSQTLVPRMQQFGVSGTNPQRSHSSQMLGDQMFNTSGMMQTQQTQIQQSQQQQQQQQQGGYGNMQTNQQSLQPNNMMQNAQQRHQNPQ
UniProt F4JGZ1: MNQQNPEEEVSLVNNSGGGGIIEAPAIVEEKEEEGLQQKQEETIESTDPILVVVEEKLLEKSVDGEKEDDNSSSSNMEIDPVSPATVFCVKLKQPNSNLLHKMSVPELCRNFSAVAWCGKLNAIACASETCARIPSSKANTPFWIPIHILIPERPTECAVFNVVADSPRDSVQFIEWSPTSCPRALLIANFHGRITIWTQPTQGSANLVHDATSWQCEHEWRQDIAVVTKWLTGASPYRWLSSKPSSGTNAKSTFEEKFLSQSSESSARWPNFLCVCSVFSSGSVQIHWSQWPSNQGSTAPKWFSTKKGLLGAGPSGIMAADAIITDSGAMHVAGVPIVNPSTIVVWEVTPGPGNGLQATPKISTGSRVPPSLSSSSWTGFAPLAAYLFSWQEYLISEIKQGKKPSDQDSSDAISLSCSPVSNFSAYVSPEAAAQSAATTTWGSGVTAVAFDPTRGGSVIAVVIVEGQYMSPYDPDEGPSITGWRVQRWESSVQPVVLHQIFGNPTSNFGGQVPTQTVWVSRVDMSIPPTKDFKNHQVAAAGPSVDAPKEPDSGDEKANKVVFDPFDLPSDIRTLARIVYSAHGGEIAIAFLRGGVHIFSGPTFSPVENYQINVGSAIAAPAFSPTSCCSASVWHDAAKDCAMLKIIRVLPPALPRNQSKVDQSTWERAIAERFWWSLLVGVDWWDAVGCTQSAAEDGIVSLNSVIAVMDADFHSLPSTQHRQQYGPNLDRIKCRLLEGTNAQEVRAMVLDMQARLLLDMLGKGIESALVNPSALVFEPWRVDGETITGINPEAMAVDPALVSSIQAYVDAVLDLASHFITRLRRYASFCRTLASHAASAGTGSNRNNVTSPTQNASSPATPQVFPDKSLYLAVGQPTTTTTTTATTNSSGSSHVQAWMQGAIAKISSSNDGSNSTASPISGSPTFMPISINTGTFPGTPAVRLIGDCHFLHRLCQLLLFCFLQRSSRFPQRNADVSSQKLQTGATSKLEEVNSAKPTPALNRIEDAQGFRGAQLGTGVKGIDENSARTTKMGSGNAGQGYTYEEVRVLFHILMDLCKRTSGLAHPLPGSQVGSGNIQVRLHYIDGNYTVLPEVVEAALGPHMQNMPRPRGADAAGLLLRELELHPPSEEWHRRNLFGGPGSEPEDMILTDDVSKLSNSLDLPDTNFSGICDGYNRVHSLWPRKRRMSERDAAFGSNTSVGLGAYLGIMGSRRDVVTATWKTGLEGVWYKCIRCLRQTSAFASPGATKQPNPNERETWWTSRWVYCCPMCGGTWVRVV
UniProt Q9LFA5: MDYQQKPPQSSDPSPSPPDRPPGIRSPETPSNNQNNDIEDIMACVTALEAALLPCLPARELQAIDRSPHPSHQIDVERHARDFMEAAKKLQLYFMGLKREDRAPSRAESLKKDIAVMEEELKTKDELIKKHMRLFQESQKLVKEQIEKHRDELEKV
UniProt Q84VW5: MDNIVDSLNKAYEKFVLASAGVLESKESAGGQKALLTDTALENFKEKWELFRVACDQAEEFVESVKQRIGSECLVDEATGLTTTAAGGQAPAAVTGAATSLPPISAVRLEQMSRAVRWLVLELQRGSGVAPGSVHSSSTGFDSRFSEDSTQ
UniProt Q9LUM4: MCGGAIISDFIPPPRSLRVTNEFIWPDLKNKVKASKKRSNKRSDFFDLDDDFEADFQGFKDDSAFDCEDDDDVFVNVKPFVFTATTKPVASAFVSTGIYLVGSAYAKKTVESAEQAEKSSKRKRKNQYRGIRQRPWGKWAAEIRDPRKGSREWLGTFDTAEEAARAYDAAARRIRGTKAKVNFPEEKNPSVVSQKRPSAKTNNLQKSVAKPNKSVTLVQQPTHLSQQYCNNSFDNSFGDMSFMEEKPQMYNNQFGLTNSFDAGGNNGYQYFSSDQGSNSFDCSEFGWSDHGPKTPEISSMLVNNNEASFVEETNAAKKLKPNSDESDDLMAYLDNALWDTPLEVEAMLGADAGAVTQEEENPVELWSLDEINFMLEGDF
UniProt Q9SSA8: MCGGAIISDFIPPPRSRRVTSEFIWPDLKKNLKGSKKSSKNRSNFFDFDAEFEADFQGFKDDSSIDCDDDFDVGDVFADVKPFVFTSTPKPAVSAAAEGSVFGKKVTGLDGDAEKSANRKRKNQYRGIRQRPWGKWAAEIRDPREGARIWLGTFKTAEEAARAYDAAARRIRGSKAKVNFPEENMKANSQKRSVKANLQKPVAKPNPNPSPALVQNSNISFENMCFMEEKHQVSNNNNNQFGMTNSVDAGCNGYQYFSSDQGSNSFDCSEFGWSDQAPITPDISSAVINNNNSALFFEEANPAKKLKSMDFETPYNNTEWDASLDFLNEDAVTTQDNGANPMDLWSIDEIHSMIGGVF

What was measured:
[1] = target: AtMED34 fused with the GAL4 DNA-binding domain (pDEST32 bait) (Arabidopsis thaliana) (UniProt Q9FT73); assay: two-hybrid
[2] = target: AtMED19 fused with the GAL4 DNA-binding domain (pDEST32 bait) (Arabidopsis thaliana) (UniProt Q9FMP0); assay: two-hybrid
[3] = target: AtMED36 fused with the GAL4 DNA-binding domain (pDEST32 bait) (Arabidopsis thaliana) (UniProt Q94AH9); assay: two-hybrid
[4] = target: AtMED8 fused with the GAL4 DNA-binding domain (pDEST32 bait) (Arabidopsis thaliana) (UniProt Q4V3C1); assay: two-hybrid
[5] = target: AtMED16 fused with the GAL4 DNA-binding domain (pDEST32 bait) (Arabidopsis thaliana) (UniProt F4JGZ1); assay: two-hybrid
[6] = target: AtMED28 fused with the GAL4 DNA-binding domain (pDEST32 bait) (Arabidopsis thaliana) (UniProt Q9LFA5); assay: two-hybrid
[7] = target: AtMED32 fused with the GAL4 DNA-binding domain (pDEST32 bait) (Arabidopsis thaliana) (UniProt Q84VW5); assay: two-hybrid
[8] = target: T1, AtMED25 fused to the N-terminus of YFP (rice protoplasts) (Arabidopsis thaliana) (UniProt Q7XYY2); assay: split reporter
T1 sequence: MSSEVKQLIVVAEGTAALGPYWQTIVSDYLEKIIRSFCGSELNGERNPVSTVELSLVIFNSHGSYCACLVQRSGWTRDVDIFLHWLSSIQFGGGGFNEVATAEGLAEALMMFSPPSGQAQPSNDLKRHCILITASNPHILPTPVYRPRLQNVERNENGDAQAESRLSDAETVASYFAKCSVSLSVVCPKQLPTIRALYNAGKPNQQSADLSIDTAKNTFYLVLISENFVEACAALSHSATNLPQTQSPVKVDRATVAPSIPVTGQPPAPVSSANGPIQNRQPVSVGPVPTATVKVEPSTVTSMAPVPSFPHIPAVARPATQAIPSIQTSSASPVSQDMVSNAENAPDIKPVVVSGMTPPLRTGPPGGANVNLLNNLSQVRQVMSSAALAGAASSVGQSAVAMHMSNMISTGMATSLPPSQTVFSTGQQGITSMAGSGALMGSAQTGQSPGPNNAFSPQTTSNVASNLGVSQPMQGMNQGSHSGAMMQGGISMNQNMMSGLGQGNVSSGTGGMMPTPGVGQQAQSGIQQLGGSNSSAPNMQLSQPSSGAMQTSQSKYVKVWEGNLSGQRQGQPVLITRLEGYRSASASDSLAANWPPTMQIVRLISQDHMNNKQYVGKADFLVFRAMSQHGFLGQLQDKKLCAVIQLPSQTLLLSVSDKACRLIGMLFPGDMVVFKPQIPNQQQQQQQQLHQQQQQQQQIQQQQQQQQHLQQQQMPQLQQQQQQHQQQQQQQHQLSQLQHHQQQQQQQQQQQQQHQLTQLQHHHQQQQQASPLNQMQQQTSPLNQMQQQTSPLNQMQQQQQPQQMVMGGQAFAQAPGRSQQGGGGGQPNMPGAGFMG

[9] = target: T2, AtMED25 fused with the GAL4 DNA binding domain (full-length, pDEST32 bait) (Arabidopsis thaliana) (UniProt Q7XYY2); assay: two-hybrid
T2 sequence: T1 sequence

| Substance | binding [1] | binding [2] | binding [3] | binding [4] | binding [5] | binding [6] | binding [7] | binding [8] | binding [9] |
| --- | --- | --- | --- | --- | --- | --- | --- | --- | --- |
| RAP2.2 fused with the GAL4 activation domain (full-length, pDEST22 prey) (from UniProt Q9LUM4 1-379) | no binding | no binding | no binding | no binding | no binding | no binding | no binding |  |  |
| RAP2.12 fused with the GAL4 activation domain (full-length, pDEST22 prey) (from UniProt Q9SSA8 1-358) | no binding | no binding | no binding | no binding | no binding | no binding | no binding |  |  |
| SUB1A fused to the C-terminus of YFP (rice protoplasts) (Oryza sativa (rice)) |  |  |  |  |  |  |  | binds |  |
| SUB1A fused with the GAL4 activation domain (pDEST22 prey) (Oryza sativa (rice)) |  |  |  |  |  |  |  |  | binds |
